Screening data, single-dose tests

Each number is a percent effect as filed. The controls that fix the scale are not given in the record; negative values are as filed. This is an unselected part of the compounds tested. Two or more numbers in one place are separate tests of the same structure; such repeats can differ widely. A dash means the value is not listed here; it may have been measured.

A: 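Whole-parasite assay of Trypanosoma brucei over 72 hours; the read-out is not stated. Tested at 30 µM. Higher reads as stronger inhibition (inferred: compounds with an IC50 in retests scored well above the rest). Values scatter widely below zero; nearly all retest evidence comes from the higher of the two concentrations used. Size under these conditions: about 64,000 compounds, about 940 of them at 50% or above in at least one test.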
B: 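Cell assay of Leishmania donovani living inside macrophages; the read-out is not stated. Concentration: 30 µM. Direction is inferred from retests: higher values go with stronger inhibition. About 69,000 compounds were tested under these conditions; 1.5% (about 1,000) showed 50% or more at least once.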

| structure | A | B |
|---|---|---|
| `CN(C)CCCNCCC(c1ccccc1)C1CCOC(C)(C)C1.O=C(O)C(=O)O` (centres unmarked) | - | 97.24% |
| `CCOC(=O)C(C)NC(=O)CCSc1ccc(F)cc1` (centres unmarked) | 45.84% | -21.29% |
| `O=C(O)c1cncc(Cc2cccc(F)c2)c1` | - | 23% |
| `O=C(O)C(F)(F)F.[H][C@@]12CCN(Cc3c(C)noc3C)[C@]1([H])CC[C@H](C(=O)N1CCCC1)O2` | -14.12% | 6.182% |
| `O=C(O)C(F)(F)F.[H][C@@]12CN(C(=O)C3CCOC3)C[C@]1([H])C(=O)N(Cc1cccnc1)C2` (some centres unmarked) | -30.08% | 29.25% |
| `O=C(O)C(F)(F)F.[H][C@@]12CCN(C(=O)Cc3cccs3)[C@@]1([H])CC(=O)N2Cc1ccncc1` | -0.2658% | 18.95% |
| `Cc1ccc(O)c(CN2CCc3nc(-c4cccnc4)nc(O)c3C2)c1` | -9.058% | -16.35% |
| `Cn1ccnc1CNC(=O)N1CCCC(Cc2nccn2C)C1` (centres unmarked) | -18.18% | 1.461% |
| `O=C(CN1CCOC(Cn2cccn2)C1)NCCc1cccs1` (centres unmarked) | - | 31.34% |
| `Cc1ccc(C(=O)N2CCC3(CC(N(C)c4ccncn4)C3)C2)cn1` (centres unmarked) | -12.9% | -7.143% and 23.22% |
| `Cc1ccc(OCC2CCCN(C(=O)CCn3ccccc3=O)C2)cc1` (centres unmarked) | -63.86% | 0.2117% |
| `O=C(c1cccc(-n2cccn2)c1)N1CCOC(CCO)C1` (centres unmarked) | -13.3% | 9.354% |
| `Cc1ncc2c(n1)CN(CC(=O)Nc1nncs1)CC2` | 18.95% | -1.096% |
| `Cn1ccnc1COc1ccc(NC(=O)CCC2CCCO2)cc1` (centres unmarked) | -31.45% | 7.778% |
| `Cn1cc(C2CC(=O)NC23CCN(C(=O)c2ccc[nH]2)CC3)cn1` (centres unmarked) | -26.55% | 10.67% |
| `Cc1cnn(CC2CCCN2CC(=O)N(C)Cc2cnn(C)c2)c1` (centres unmarked) | -19.77% | -4.184% |
| `CCn1nc(C)c(NC(=O)CN2CCC(c3ccccc3Cl)C2)c1C` (centres unmarked) | -97.04% | 18.29% |
| `Cc1ccc(CN2CCc3c(CN4CCCC4)n[nH]c3C2)s1.O=C(O)C(F)(F)F.O=C(O)C(F)(F)F` | -8.216% | 22.3% |
| `CCOc1nnc(CN2CCOC(CNc3cccnn3)C2)s1` (centres unmarked) | -12.78% | 11.66% |
| `Cc1cc(N2CCC(NC(=O)CCc3cnn(C)c3)CC2)nc(C)n1` | -37.05% | 4.403% |
| `CC(C)(C)C(=O)NCCCc1nc2ccccc2[nH]1` | -34.06% | -0.8356% |
| `Cn1cc(CNCC2(N3CCCCC3)Cc3ccccc3C2)cn1` | -32.39% | 19.7% |
| `COCc1nnc(C(=O)N2CCC(N3CCCCC3)CC2)o1` | -46.2% | -18.81% |
| `COc1ccc2c(C)nc(N3C[C@@H](C)O[C@@H](C)C3)nc2c1` | -27.55% | -6.865% |
| `Cc1noc(-c2ccc(-n3ncc(C(=O)O)c3C)nc2)n1` | -16.37% | -8.065% |
| `CC(C)OCCN(C)C(C)c1cccc(S(N)(=O)=O)c1` (centres unmarked) | -8.09% | -4.558% |
| `Cc1cccc(C(=O)N2CCSCC2)c1NC(=O)c1cccnc1` | -24.63% | 11.9% |
| `O=C(Nc1cc(-c2cccnc2)no1)C1CCCCC1` | -2.027% | -1.998% |
| `CC(C)N(Cc1ccccn1)C(=O)CCOc1cccc(F)c1` | -10.49% | 5.121% |
| `O=C(NCCN1CCCCCC1=O)c1n[nH]c(=O)c2ccccc12` | 5.527% | -15.34% |
| `CC(NC(=O)CCC1CCCCC1)c1nnc2n1CCC2` (centres unmarked) | - | 33.64% |
| `Cc1ncc(CN2CCCC(c3cc(C(N)=O)[nH]n3)C2)s1` (centres unmarked) | -9.424% | -1.4% |
| `O=C(c1ccnnc1)N1CCc2onc(Cn3cccn3)c2C1` | -24.34% | 28.17% |
| `CN1N=C(C(=O)N2CCCCC2)S(=O)(=O)c2ccccc21` | -15.8% | 13.1% |
| `Cc1nn(CC(=O)Nc2ccon2)cc1Br` | -15.47% | -21.05% |
| `COc1cccc2c1OCC(C(=O)N1CCC(NS(C)(=O)=O)CC1)C2` (centres unmarked) | -23.69% | -3.061% |
| `NC(=O)c1ccc(CN2CCCC(N3CCCC3)C2)cc1` (centres unmarked) | 11.66% | 29.16% |
| `O=C(CN1CCOCC1)Nc1cc(C(F)(F)F)ccc1-n1cccc1` | - | 16.35% |
| `CCc1noc(C2CCCCN2C(=O)c2cccnc2)n1` (centres unmarked) | -29.63% | -10.93% |
| `COc1cccc(CN2CCC(c3cc(O)nc(C)n3)C2)c1.O=C(O)CC(O)(CC(=O)O)C(=O)O` (centres unmarked) | 15.61% | 24.04% |
| `COc1ccc2c(c1)C1(CCNCC1)CC2NC1CC1.Cl.Cl` (centres unmarked) | 41.51% | 16.47% |
| `Cc1noc(C2CCCN(CC(=O)N3CCc4ccccc4C3)C2)n1` (centres unmarked) | -13.61% | 17.06% |
| `O=C(Nc1cccnc1)C1Cc2nc(-c3ccsc3)sc2N1CC1CC1.O=C(O)C(F)(F)F` (centres unmarked) | 60.89% | -7.768% |
| `O=C(O)C(F)(F)F.[H][C@@]12C[C@H](c3nc(C)no3)CN(Cc3cccs3)[C@]1([H])CCO2` | -17.41% | 16.3% |
| `Cc1nnc(C(NS(=O)(=O)c2cc(F)c(C)cc2F)C(C)C)[nH]1` (centres unmarked) | 6.17% | -18.39% |
| `NC(=O)Nc1cccc(Oc2ccccn2)c1` | 3.606% | 3.756% |
| `O=C(O)C(F)(F)F.[H][C@@]12COC[C@@H](C(=O)N3CCC(F)CC3)[C@]1([H])CN(CC1CC1)C2` | -66.49% | -10.35% |
| `COCCN1CCc2ncnc(N(C)C)c2CC1` | -75.42% | 29.67% |

Repeated from the top, 4 entries:

- CN(C)CCCNCCC(c1ccccc1)C1CCOC(C)(C)C1.O=C(O)C(=O)O (centres unmarked) : B: 97.24%
- CCOC(=O)C(C)NC(=O)CCSc1ccc(F)cc1 (centres unmarked) : A: 45.84%; B: -21.29%
- O=C(O)c1cncc(Cc2cccc(F)c2)c1 : B: 23%
- O=C(O)C(F)(F)F.[H][C@@]12CCN(Cc3c(C)noc3C)[C@]1([H])CC[C@H](C(=O)N1CCCC1)O2 : A: -14.12%; B: 6.182%

The values are deposited in ChEMBL (CHEMBL3988442, “University of Dundee, Small-Polar-MMV Screening Library” (2021)).